Measured values taken from patent US20100268187A1, “PACKAGING FOR SIROLIMUS AND COMPOSITION THEREOF” (Ranbaxy Laboratories Limited, priority 2009, published 2010).
At least one structure is not confirmed: it was looked up by name or label, or the drawing left a doubt.

Test: Stability studies of sirolimus particles packed in vacuum sealed impermeable container at 25° C. and 60% RH, impurities by gradient HPLC
Assay type: physicochemical
Source text: Sirolimus particles (d90-4.1 micron) were packed in a bag made up of laminate having a polyester and a polyethylene layer wherein the layers have a thickness of 12 micron and 75 micron, respectively. The bag was sealed under vacuum. The vacuum sealed bag was put into second bag made up of laminate having polyester, aluminium foil, polyester and polyethylene layer wherein the layers have a thickness of 12 micron, 12 micron, 12 micron and 75 microns, respectively. The second bag was sealed under vacuum and was subjected to stability studies at 25° C. and 60% RH for three months.
Quantitative determination was carried out using Gradient High Performance Liquid Chromatography with a mixture of ammonium phosphate buffer and an organic phase (acetonitrile and tetrahydrofuran) as the mobile phase, ACE C18, HL, 5 μm column as a stationary phase and a UV detector.

[1] = initial, sirolimus particles (d90 4.1 micron) in double vacuum sealed impermeable bags
[2] = three months at 25° C. and 60% RH, double vacuum sealed impermeable bags

CO[C@H]1C[C@@H]2CC[C@@H](C)[C@@](O)(O2)C(=O)C(=O)N2CCCC[C@H]2C(=O)O[C@H]([C@H](C)C[C@@H]2CC[C@@H](O)[C@H](OC)C2)CC(=O)[C@H](C)/C=C(\C)[C@@H](O)[C@@H](OC)C(=O)[C@H](C)C[C@H](C)/C=C/C=C/C=C/1C [sirolimus particles, Sirolimus]
Impurities: Isomer A, Initial [1]: 0.132 % w/w | Impurities: Isomer C, Initial [1]: 3.331 % w/w | Impurities: Total unknown, Initial [1]: 0.384 % w/w | Impurities: Isomer A, Three months [2]: 0.202 % w/w | Impurities: Isomer C, Three months [2]: 3.642 % w/w | Impurities: Total unknown, Three months [2]: 0.519 % w/w
